Laboratory results published in patent US20040077828A1.
Results are given in words; binding and its absence hold for the method and conditions named. Binding calls can cover weak binding; strength is not graded here.

Molecular target: recombinant soluble TNF-related apoptosis-inducing ligand (TRAIL), PeproTech
Test: ELISA

B1: recombinant mouse sFRP-2 (protein, UniProt P97299 25-295, looked up)
chain: LFLFGQPDFSYKRSNCKPIPANLQLCHGIEYQNMRLPNLLGHETMKEVLEQAGAWIPLVMKQCHPDTKKFLCSLFAPVCLDDLDETIQPCHSLCVQVKDRCAPVMSAFGFPWPDMLECDRFPQDNDLCIPLASSDHLLPATEEAPKVCEACKTKNEDDNDIMETLCKNDFALKIKVKEITYINRDTKIILETKSKTIYKLNGVSERDLKKSVLWLKDSLQCTCEEMNDINAPYLVMGQKQGGELVITSVKRWQKGQREFKRISRSIRKLQC
B1 was tested, and the binding was “binds”.
